Values quoted from earlier work as cited in US20260315500A1, “SOLID CANNABINOID COMPOSITION FOR PARENTERAL USE” (Bender Analytical Holding B.V., priority 2023, published 2026).
Values after ≈ are worked out from the molar mass of the structure shown.

C=C(C)[C@@H]1CCC(C)=C[C@H]1c1c(O)cc(CCCCC)cc1O [Cannabidiol]
water solubility: 0.0627 µg/mL (≈ 0.199 µM)
